Taken from: PubChem BioAssay AID686938 (Drosophila RNAi Screening Center, 2013)

Test: 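Fly genes required for calcium entry once internal stores are emptied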 (primary screen)
Cell system: Drosophila S2R+ cells
Reagents: long dsRNA against Drosophila genes, about 0.25 µg dsRNA per well, roughly 10,000 cells
Timing: 5 days of knock-down before the calcium assay
Conditions: thapsigargin (SERCA pump blocker) to empty calcium stores; entry signal taken 4 min after adding it
Detection: 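Duplicate raw fluo-4 intensities per well from a plate reader, at rest and four minutes after thapsigargin emptied calcium stores; entry-to-rest ratio filled for only some wells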
Reading the numbers: calcium entry signal: higher = stronger calcium signal after store depletion; resting calcium signal: higher = higher resting calcium signal
Units: calcium entry signal in fluorescence units; resting calcium signal in fluorescence units
Hit rule: 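Called when the plate z-score of the entry-to-rest ratio, mean of duplicates, falls below −3; wells with low overall dye signal (Fmax z below −2) or more than five off-targets excluded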
Meaning of the calls: active = strongly reduced calcium entry; inactive = no strong reduction
In all, the deposit lists about 23,000 reagents; below is an unselected part of those that have a named target and a result. Over the whole deposit, 75 (0.33%) were called active. 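Raw plate signals without normalisation; calls rest on plate z-scores that were not deposited; ratio present for only 364 wells.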 Reagent sequences are not shown. The record does not give: the dose of the treatment.

CG18598 [DRSC15356]: calcium entry signal, replicate 1 = 3.40e7; calcium entry signal, replicate 2 = 3.75e7; resting calcium signal, replicate 1 = 3.75e7; resting calcium signal, replicate 2 = 1.66e7; activity call = inactive
CG11262 [DRSC09831]: calcium entry signal, replicate 1 = 2.67e7; calcium entry signal, replicate 2 = 3.57e7; resting calcium signal, replicate 1 = 1.44e7; resting calcium signal, replicate 2 = 1.58e7; activity call = inactive
Sgf29 (SAGA-associated factor 29kDa) [DRSC04076]: calcium entry signal, replicate 1 = 4.21e7; resting calcium signal, replicate 1 = 1.98e7; activity call = inactive
CG9436 [DRSC05005]: calcium entry signal, replicate 1 = 3.97e7; resting calcium signal, replicate 1 = 1.87e7; activity call = inactive

Continued, starting with the last 2 of the part before.
Sgf29 (SAGA-associated factor 29kDa) [DRSC04076]: calcium entry signal, replicate 1 = 4.21e7; resting calcium signal, replicate 1 = 1.98e7; activity call = inactive
CG9436 [DRSC05005]: calcium entry signal, replicate 1 = 3.97e7; resting calcium signal, replicate 1 = 1.87e7; activity call = inactive
bnl (branchless) [DRSC13377]: calcium entry signal, replicate 1 = 4.34e7; calcium entry signal, replicate 2 = 3.40e7; resting calcium signal, replicate 1 = 2.27e7; resting calcium signal, replicate 2 = 1.68e7; activity call = inactive
bnl (branchless) [DRSC16913]: calcium entry signal, replicate 1 = 3.52e7; calcium entry signal, replicate 2 = 2.93e7; resting calcium signal, replicate 1 = 1.70e7; resting calcium signal, replicate 2 = 1.39e7; activity call = inactive
bnl (branchless) [DRSC23212]: calcium entry signal, replicate 1 = 3.80e7; calcium entry signal, replicate 2 = 4.02e7; resting calcium signal, replicate 1 = 1.97e7; resting calcium signal, replicate 2 = 1.94e7; activity call = inactive
dmt (dalmatian) [DRSC16932]: calcium entry signal, replicate 1 = 2.12e7; calcium entry signal, replicate 2 = 2.63e7; resting calcium signal, replicate 1 = 1.49e7; resting calcium signal, replicate 2 = 1.74e7; activity call = inactive
Ntf-2r (Nuclear transport factor-2-related) [DRSC02019]: calcium entry signal, replicate 1 = 4.55e7; calcium entry signal, replicate 2 = 3.71e7; resting calcium signal, replicate 1 = 2.20e7; resting calcium signal, replicate 2 = 1.94e7; activity call = inactive
alpha-PheRS (Phenylalanyl-tRNA synthetase, alpha-subunit) [DRSC18224]: calcium entry signal, replicate 1 = 2.09e7; calcium entry signal, replicate 2 = 2.00e7; resting calcium signal, replicate 1 = 9.42e6; resting calcium signal, replicate 2 = 1.01e7; activity call = inactive
CG44098 [DRSC12214]: calcium entry signal, replicate 1 = 2.90e7; calcium entry signal, replicate 2 = 2.81e7; resting calcium signal, replicate 1 = 1.50e7; resting calcium signal, replicate 2 = 1.36e7; activity call = inactive
CG44098 [DRSC12240]: calcium entry signal, replicate 1 = 3.02e7; calcium entry signal, replicate 2 = 4.78e7; resting calcium signal, replicate 1 = 1.45e7; resting calcium signal, replicate 2 = 2.03e7; activity call = inactive
CG44098 [DRSC12327]: calcium entry signal, replicate 1 = 3.03e7; calcium entry signal, replicate 2 = 4.54e7; resting calcium signal, replicate 1 = 1.53e7; resting calcium signal, replicate 2 = 2.12e7; activity call = inactive
